# Experimental data taken from paper PMC6440744.
# Sequences of proteins named here, by UniProt entry; tags and fusion partners are left off.
# UniProt Q8TDM6: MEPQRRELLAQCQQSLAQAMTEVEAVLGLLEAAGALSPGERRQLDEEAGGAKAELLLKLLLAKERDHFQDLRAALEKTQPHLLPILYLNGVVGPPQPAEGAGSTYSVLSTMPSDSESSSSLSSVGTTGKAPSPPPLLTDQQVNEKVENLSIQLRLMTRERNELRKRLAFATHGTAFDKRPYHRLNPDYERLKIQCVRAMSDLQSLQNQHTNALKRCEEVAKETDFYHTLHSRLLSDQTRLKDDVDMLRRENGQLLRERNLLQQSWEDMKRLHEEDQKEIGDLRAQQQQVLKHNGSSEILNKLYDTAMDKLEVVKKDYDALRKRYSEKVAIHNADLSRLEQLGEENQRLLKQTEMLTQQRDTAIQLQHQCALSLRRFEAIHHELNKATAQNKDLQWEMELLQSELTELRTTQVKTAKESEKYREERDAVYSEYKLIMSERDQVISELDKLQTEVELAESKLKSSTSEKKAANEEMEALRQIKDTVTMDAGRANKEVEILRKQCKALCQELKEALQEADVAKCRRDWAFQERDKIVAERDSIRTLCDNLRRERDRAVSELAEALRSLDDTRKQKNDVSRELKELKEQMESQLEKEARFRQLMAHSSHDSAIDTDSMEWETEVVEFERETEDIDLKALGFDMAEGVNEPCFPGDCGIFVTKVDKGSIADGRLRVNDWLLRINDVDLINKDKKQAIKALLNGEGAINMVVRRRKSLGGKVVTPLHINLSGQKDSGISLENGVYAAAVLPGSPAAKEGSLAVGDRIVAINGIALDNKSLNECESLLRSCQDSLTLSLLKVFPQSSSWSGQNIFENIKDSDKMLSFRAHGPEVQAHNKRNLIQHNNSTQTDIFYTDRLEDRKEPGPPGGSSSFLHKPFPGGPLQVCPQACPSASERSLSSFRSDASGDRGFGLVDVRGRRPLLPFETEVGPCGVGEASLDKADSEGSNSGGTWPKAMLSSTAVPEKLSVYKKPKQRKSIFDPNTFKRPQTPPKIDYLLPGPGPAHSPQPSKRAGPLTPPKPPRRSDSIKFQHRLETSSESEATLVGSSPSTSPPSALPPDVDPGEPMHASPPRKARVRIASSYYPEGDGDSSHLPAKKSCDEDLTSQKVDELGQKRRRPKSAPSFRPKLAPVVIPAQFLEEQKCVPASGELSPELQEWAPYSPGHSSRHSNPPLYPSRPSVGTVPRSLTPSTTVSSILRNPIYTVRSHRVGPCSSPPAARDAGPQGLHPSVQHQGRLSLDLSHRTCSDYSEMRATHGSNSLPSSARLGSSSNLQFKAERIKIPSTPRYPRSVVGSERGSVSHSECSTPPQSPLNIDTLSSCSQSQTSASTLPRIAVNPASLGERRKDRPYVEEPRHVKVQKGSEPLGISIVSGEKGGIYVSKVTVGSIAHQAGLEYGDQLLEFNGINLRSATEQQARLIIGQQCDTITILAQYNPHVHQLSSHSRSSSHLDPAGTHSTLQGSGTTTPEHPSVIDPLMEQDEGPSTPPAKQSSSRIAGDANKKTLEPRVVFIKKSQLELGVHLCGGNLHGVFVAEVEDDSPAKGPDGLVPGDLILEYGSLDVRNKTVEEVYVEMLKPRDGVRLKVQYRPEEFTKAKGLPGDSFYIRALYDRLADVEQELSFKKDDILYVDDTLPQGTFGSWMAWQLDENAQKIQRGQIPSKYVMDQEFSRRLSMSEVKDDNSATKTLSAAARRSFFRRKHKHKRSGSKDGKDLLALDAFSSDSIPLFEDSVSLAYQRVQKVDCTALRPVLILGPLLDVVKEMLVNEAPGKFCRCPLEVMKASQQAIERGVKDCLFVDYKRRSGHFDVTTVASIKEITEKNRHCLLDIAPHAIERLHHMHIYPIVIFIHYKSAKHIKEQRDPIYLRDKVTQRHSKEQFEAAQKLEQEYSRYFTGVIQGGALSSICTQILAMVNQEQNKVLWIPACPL
# UniProt Q8N4C8: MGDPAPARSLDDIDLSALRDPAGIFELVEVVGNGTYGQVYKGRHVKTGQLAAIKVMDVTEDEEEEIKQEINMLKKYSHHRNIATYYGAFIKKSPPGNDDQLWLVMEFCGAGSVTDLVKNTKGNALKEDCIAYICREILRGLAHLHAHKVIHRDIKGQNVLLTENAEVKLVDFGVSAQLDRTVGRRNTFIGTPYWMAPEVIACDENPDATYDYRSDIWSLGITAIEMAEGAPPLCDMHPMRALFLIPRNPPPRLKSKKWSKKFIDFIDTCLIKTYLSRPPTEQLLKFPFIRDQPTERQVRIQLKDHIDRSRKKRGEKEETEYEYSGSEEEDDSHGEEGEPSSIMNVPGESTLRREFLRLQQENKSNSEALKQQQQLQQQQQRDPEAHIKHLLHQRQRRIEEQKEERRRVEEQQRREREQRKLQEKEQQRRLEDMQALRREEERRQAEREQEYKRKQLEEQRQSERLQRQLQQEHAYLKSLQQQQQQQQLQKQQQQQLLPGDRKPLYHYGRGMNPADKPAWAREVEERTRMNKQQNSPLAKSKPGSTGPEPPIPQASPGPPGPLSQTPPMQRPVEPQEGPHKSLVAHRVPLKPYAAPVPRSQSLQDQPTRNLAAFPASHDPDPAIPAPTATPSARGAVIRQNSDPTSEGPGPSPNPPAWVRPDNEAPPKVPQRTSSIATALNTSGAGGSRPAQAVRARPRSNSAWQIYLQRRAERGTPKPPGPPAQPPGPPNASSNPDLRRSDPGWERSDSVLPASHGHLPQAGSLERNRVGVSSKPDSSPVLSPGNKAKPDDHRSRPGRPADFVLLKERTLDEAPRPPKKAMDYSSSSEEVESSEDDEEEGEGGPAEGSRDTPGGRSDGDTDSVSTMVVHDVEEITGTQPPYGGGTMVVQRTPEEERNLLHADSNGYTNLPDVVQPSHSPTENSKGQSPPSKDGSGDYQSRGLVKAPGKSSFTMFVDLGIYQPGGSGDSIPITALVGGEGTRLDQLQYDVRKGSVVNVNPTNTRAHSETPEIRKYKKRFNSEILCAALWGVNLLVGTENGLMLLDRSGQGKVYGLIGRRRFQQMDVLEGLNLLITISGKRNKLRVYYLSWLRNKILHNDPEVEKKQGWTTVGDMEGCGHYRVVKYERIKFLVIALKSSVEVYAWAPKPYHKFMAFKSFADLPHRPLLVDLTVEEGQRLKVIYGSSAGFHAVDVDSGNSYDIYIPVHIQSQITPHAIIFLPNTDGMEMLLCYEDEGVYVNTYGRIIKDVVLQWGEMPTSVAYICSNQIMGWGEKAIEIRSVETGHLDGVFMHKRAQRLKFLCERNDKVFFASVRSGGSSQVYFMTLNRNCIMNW
# UniProt P49023: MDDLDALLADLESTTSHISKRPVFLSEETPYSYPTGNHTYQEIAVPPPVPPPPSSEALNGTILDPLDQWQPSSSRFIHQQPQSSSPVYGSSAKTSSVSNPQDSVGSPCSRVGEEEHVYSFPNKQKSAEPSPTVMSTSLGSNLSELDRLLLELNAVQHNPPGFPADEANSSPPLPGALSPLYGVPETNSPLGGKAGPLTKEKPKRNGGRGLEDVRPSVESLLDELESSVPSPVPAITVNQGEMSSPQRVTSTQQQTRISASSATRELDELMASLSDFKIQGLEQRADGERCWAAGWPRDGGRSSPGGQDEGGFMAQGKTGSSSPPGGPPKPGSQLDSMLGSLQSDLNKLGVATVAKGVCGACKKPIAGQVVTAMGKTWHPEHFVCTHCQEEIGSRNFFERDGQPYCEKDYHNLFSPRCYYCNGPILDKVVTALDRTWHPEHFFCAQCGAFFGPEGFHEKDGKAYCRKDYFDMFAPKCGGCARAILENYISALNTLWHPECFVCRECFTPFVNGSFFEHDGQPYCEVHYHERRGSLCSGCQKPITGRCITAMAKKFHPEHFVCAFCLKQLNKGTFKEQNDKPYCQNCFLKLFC
# UniProt Q9UDY2: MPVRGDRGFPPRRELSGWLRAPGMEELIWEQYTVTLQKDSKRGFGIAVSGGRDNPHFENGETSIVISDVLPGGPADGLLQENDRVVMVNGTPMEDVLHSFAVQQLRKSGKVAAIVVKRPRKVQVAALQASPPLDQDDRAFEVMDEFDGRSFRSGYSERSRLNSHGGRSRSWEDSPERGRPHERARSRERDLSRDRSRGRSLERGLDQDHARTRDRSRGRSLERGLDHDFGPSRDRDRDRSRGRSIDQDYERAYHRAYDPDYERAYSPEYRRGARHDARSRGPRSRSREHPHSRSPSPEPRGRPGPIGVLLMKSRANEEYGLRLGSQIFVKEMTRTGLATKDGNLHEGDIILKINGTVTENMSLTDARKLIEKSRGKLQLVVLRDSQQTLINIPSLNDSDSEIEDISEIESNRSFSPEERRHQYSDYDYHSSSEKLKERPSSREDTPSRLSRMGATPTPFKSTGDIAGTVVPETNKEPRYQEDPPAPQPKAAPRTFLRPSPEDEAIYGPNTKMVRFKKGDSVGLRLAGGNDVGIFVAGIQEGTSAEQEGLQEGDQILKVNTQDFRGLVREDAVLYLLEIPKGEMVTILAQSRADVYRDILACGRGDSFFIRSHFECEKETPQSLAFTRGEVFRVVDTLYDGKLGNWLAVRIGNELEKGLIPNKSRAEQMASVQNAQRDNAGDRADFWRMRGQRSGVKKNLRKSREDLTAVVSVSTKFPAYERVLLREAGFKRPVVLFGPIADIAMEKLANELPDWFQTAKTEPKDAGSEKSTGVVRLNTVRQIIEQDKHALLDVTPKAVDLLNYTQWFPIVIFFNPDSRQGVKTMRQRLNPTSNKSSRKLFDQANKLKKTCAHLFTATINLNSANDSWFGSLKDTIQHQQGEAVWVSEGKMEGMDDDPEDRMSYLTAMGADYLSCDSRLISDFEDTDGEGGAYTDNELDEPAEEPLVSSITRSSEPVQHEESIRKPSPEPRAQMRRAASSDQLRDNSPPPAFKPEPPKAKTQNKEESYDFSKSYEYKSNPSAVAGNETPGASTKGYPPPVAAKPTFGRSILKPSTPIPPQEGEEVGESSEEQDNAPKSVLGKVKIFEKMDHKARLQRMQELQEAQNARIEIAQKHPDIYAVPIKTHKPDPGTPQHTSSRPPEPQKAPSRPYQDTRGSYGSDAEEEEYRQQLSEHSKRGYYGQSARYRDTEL
# UniProt P35222: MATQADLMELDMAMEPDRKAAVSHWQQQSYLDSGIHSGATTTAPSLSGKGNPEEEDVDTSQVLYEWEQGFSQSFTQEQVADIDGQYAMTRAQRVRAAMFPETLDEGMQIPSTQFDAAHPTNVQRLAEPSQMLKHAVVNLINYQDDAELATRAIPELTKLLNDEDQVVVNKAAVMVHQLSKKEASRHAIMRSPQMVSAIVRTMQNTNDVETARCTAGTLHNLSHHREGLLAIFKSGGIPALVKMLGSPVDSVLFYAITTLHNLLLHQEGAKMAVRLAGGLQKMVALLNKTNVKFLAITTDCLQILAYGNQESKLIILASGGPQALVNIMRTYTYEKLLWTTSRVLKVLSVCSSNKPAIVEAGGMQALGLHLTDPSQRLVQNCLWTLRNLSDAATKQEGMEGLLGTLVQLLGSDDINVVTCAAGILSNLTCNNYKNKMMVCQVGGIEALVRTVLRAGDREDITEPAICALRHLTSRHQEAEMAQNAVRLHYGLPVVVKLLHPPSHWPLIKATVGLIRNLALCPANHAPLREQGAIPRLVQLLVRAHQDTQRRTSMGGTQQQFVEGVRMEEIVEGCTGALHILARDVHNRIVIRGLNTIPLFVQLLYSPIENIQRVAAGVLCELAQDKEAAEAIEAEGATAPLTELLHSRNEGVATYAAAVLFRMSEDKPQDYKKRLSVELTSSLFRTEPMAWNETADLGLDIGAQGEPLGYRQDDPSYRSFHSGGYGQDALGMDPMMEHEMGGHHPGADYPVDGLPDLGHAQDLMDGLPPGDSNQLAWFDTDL
# These are yes or no findings as the source states them, for the method shown. Binding seen in cells or lysates may run through a third protein. These calls come from enrichment with a bait or labelling near it, and not all partners need be listed. A no says only that the protein was not detected with the bait. Where a sequence is shown, tags or fusion partners need not be part of it.
# T1: PTPRK-C1089S.BirA*-Flag (human) (UniProt Q15262)
# T1 sequence: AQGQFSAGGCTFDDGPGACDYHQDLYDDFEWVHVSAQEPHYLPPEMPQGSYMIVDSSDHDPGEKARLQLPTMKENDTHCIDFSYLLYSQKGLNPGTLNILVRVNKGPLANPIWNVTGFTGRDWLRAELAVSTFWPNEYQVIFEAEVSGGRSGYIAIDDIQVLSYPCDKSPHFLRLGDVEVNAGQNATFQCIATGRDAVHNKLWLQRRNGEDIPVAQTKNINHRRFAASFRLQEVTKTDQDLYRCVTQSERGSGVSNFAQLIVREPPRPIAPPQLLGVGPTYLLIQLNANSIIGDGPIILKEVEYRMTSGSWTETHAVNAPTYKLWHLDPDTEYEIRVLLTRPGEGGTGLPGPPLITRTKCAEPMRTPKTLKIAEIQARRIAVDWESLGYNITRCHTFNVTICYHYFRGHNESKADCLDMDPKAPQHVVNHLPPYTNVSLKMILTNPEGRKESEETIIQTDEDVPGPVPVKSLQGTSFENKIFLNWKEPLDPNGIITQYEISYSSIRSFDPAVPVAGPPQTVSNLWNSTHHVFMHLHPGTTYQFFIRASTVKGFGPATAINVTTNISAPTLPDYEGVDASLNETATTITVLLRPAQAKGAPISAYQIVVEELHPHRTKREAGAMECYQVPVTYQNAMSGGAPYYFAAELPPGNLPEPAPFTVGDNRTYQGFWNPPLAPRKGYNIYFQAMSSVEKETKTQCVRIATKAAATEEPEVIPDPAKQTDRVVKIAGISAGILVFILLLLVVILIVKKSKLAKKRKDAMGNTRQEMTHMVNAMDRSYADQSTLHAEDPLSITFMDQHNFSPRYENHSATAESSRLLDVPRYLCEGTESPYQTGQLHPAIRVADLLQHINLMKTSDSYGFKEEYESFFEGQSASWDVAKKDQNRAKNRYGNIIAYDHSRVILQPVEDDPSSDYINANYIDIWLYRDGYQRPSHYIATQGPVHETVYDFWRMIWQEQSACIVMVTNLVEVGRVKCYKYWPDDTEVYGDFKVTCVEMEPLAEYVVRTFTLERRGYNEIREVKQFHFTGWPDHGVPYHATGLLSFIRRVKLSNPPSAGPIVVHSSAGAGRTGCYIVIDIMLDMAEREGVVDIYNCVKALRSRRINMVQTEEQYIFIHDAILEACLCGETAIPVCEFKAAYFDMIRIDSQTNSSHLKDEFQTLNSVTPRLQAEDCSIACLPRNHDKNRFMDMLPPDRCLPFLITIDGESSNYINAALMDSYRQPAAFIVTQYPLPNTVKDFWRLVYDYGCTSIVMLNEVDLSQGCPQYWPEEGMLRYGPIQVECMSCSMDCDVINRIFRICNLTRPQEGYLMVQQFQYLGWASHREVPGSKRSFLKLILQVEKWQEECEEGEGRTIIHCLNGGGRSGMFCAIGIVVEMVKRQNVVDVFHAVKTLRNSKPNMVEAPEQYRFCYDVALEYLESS
# B1: PKP3 (protein, UniProt Q9Y446 1-797)
# chain: MQDGNFLLSALQPEAGVCSLALPSDLQLDRRGAEGPEAERLRAARVQEQVRARLLQLGQQPRHNGAAEPEPEAETARGTSRGQYHTLQAGFSSRSQGLSGDKTSGFRPIAKPAYSPASWSSRSAVDLSCSRRLSSAHNGGSAFGAAGYGGAQPTPPMPTRPVSFHERGGVGSRADYDTLSLRSLRLGPGGLDDRYSLVSEQLEPAATSTYRAFAYERQASSSSSRAGGLDWPEATEVSPSRTIRAPAVRTLQRFQSSHRSRGVGGAVPGAVLEPVARAPSVRSLSLSLADSGHLPDVHGFNSYGSHRTLQRLSSGFDDIDLPSAVKYLMASDPNLQVLGAAYIQHKCYSDAAAKKQARSLQAVPRLVKLFNHANQEVQRHATGAMRNLIYDNADNKLALVEENGIFELLRTLREQDDELRKNVTGILWNLSSSDHLKDRLARDTLEQLTDLVLSPLSGAGGPPLIQQNASEAEIFYNATGFLRNLSSASQATRQKMRECHGLVDALVTSINHALDAGKCEDKSVENAVCVLRNLSYRLYDEMPPSALQRLEGRGRRDLAGAPPGEVVGCFTPQSRRLRELPLAADALTFAEVSKDPKGLEWLWSPQIVGLYNRLLQRCELNRHTTEAAAGALQNITAGDRRWAGVLSRLALEQERILNPLLDRVRTADHHQLRSLTGLIRNLSRNARNKDEMSTKVVSHLIEKLPGSVGEKSPPAEVLVNIIAVLNNLVVASPIAARDLLYFDGLRKLIFIKKKRDSPDSEKSSRAASSLLANLWQYNKLHRDFRAKGYRKEDFLGP
# B2: p120^Cat (protein, UniProt O60716 1-968)
# chain: MDDSEVESTASILASVKEQEAQFEKLTRALEEERRHVSAQLERVRVSPQDANPLMANGTLTRRHQNGRFVGDADLERQKFSDLKLNGPQDHSHLLYSTIPRMQEPGQIVETYTEEDPEGAMSVVSVETSDDGTTRRTETTVKKVVKTVTTRTVQPVAMGPDGLPVDASSVSNNYIQTLGRDFRKNGNGGPGPYVGQAGTATLPRNFHYPPDGYSRHYEDGYPGGSDNYGSLSRVTRIEERYRPSMEGYRAPSRQDVYGPQPQVRVGGSSVDLHRFHPEPYGLEDDQRSMGYDDLDYGMMSDYGTARRTGTPSDPRRRLRSYEDMIGEEVPSDQYYWAPLAQHERGSLASLDSLRKGGPPPPNWRQPELPEVIAMLGFRLDAVKSNAAAYLQHLCYRNDKVKTDVRKLKGIPVLVGLLDHPKKEVHLGACGALKNISFGRDQDNKIAIKNCDGVPALVRLLRKARDMDLTEVITGTLWNLSSHDSIKMEIVDHALHALTDEVIIPHSGWEREPNEDCKPRHIEWESVLTNTAGCLRNVSSERSEARRKLRECDGLVDALIFIVQAEIGQKDSDSKLVENCVCLLRNLSYQVHREIPQAERYQEAAPNVANNTGPHAASCFGAKKGKDEWFSRGKKPIEDPANDTVDFPKRTSPARGYELLFQPEVVRIYISLLKESKTPAILEASAGAIQNLCAGRWTYGRYIRSALRQEKALSAIADLLTNEHERVVKAASGALRNLAVDARNKELIGKHAIPNLVKNLPGGQQNSSWNFSEDTVISILNTINEVIAENLEAAKKLRETQGIEKLVLINKSGNRSEKEVRAAALVLQTIWGYKELRKPLEKEGWKKSDFQVNLNNASRSQSSHSYDDSTLPLIDRNQKSDKKPDREEIQMSNMGSNTKSLDNNYSTPNERGDHNRTLDRSGDLGDMEPLKGTTPLMQDEGQESLEEELDVLVLDDEGGQVSYPSMQKI
# B3: ABLIM3 (protein, UniProt O94929 1-683)
# chain: MNTSIPYQQNPYNPRGSSNVIQCYRCGDTCKGEVVRVHNNHFHIRCFTCQVCGCGLAQSGFFFKNQEYICTQDYQQLYGTRCDSCRDFITGEVISALGRTYHPKCFVCSLCRKPFPIGDKVTFSGKECVCQTCSQSMASSKPIKIRGPSHCAGCKEEIKHGQSLLALDKQWHVSCFKCQTCSVILTGEYISKDGVPYCESDYHAQFGIKCETCDRYISGRVLEAGGKHYHPTCARCVRCHQMFTEGEEMYLTGSEVWHPICKQAARAEKKLKHRRTSETSISPPGSSIGSPNRVICAKVDNEILNYKDLAALPKVKSIYEVQRPDLISYEPHSRYMSDEMLERCGYGESLGTLSPYSQDIYENLDLRQRRASSPGYIDSPTYSRQGMSPTFSRSPHHYYRSGPESGRSSPYHSQLDVRSSTPTSYQAPKHFHIPAGDSNIYRKPPIYKRHGDLSTATKSKTSEDISQTSKYSPIYSPDPYYASESEYWTYHGSPKVPRARRFSSGGEEDDFDRSMHKLQSGIGRLILKEEMKARSSSYADPWTPPRSSTSSREALHTAGYEMSLNGSPRSHYLADSDPLISKSASLPAYRRNGLHRTPSADLFHYDSMNAVNWGMREYKIYPYELLLVTTRGRNRLPKDVDRTRLERHLSQEEFYQVFGMTISEFDRLALWKRNELKKQARLF
# B4: PTPN14 (protein, UniProt Q15678 1-1187)
# chain: MPFGLKLRRTRRYNVLSKNCFVTRIRLLDSNVIECTLSVESTGQECLEAVAQRLELRETHYFGLWFLSKSQQARWVELEKPLKKHLDKFANEPLLFFGVMFYVPNVSWLQQEATRYQYYLQVKKDVLEGRLRCTLDQVIRLAGLAVQADFGDYNQFDSQDFLREYVLFPMDLALEEAVLEELTQKVAQEHKAHSGILPAEAELMYINEVERLDGFGQEIFPVKDNHGNCVHLGIFFMGIFVRNRIGRQAVIYRWNDMGNITHNKSTILVELINKEETALFHTDDIENAKYISRLFATRHKFYKQNKICTEQSNSPPPIRRQPTWSRSSLPRQQPYILPPVHVQCGEHYSETHTSQDSIFHGNEEALYCNSHNSLDLNYLNGTVTNGSVCSVHSVNSLNCSQSFIQASPVSSNLSIPGSDIMRADYIPSHRHSAIIVPSYRPTPDYETVMRQMKRGILHTDSQSQSLRNLNIINTHAYNQPEDLVYSQPEMRERHPYTVPYGPQGVYSNKLVSPSDQRNPKNNVVPSKPGASAISHTVSTPELANMQLQGSHNYSTAHMLKNYLFRPPPPYPRPRPATSTPDLASHRHKYVSGSSPDLVTRKVQLSVKTFQEDSSPVVHQSLQEVSEPLTATKHHGTVNKRHSLEVMNSMVRGMEAMTLKSLHLPMARRNTLREQGPPEEGSGSHEVPQLPQYHHKKTFSDATMLIHSSESEEEEEEAPESVPQIPMLREKMEYSAQLQAALARIPNKPPPEYPGPRKSVSNGALRQDQASLPPAMARARVLRHGPAKAISMSRTDPPAVNGASLGPSISEPDLTSVKERVKKEPVKERPVSEMFSLEDSIIEREMMIRNLEKQKMAGLEAQKRPLMLAALNGLSVARVSGREENRVDATRVPMDERFRTLKKKLEEGMVFTEYEQIPKKKANGIFSTAALPENAERSRIREVVPYEENRVELIPTKENNTGYINASHIKVVVGGAEWHYIATQGPLPHTCHDFWQMVWEQGVNVIAMVTAEEEGGRTKSHRYWPKLGSKHSSATYGKFKVTTKFRTDSVCYATTGLKVKHLLSGQERTVWHLQYTDWPDHGCPEDVQGFLSYLEEIQSVRRHTNSMLEGTKNRHPPIVVHCSAGVGRTGVLILSELMIYCLEHNEKVEVPMMLRLLREQRMFMIQTIAQYKFVYQVLIQFLQNSRLI
# Target: T1, PTPRK-C1089S.BirA*-Flag (human)
# Assay: proximity labelling; BioID in confluent MCF10A cells: doxycycline-induced PTPRK-C1089S.BirA*-Flag compared with PTPRK(1-785).BirA*-Flag and tGFP; 50 μM biotin for 24 hr; RIPA lysis, streptavidin agarose pull down, immunoblot
row,binding,Molecule
1,binds,DLG5 (from UniProt Q8TDM6 1-1919)
2,no binding,E-Cadherin (human (endogenous in MCF10A))
3,binds,MINK1 (from UniProt Q8N4C8 1-1332)
4,no binding,Paxillin (from UniProt P49023 1-591)
5,no binding,Tubulin (human (endogenous in MCF10A))
6,no binding,ZO2 (from UniProt Q9UDY2 1-1190)
7,no binding,β-Catenin (from UniProt P35222 1-781)
8,binds,B1
9,binds,B2
10,binds,B3
11,binds,B4
